Reference: PubChem BioAssay AID2685 (National Center for Advancing Translational Sciences (NCATS), 2010)
The list shows a part of the results. Further columns of the screen follow, without active or inactive calls. Most of these compounds were active or inconclusive in the main read-out, so they are no random draw. The note in brackets gives the kind of curve behind each potency; many fits are weak.

Test: qHTS Assay for Lipid Storage Modulators in Drosophila S3 Cells;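 for cell number change: cells counted by Cell Tracker Red CMTPX staining in the red channel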
Conditions: BODIPY lipid droplet fluorescence, 18-24 h; for cell number change: measured here: cell count max response, cells fed with added oleic acid
Procedure, shortened: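 Laser-scanning cytometry quantifies lipid droplet accumulation (500–530 nm total intensity; droplet/cell object ratio) in oleic acid-fed (400 uM added) Drosophila S3 cells treated with a concentration series. 20 uM Triacsin C defined 100% inhibition.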

[1] = measured here: cell number channel AC50, cells fed with added oleic acid
[2] = measured here: lipid fluorescence (Fed channel) AC50, cells fed with added oleic acid

SMILES | cell number change [%] | AC50 [1] | AC50 [2]
CCOC(=O)N1CCC(Nc2c(NCCN3CCN(c4cccc(Cl)c4)CC3)c(=O)c2=O)CC1 | 3.5 |  | 
CC(C)c1nc(SCC(=O)NCc2ccccc2)n[nH]1 | 5.97 |  | 
CCC(C(=O)NC(C)(C)C)N(Cc1ccc(F)cc1)C(=O)c1snc(C(N)=O)c1N (stereo not given) | -27.7 |  | 
Cc1cc(NC(=O)c2cc(-c3ccc(C)c(C)c3)nc3ccccc23)no1 | 32.6 | 9.2 µM [rising, single point] | 16.4 µM [rising, partial curve]
CCC1CCCCN1C(=O)CCCOc1ccccc1 (stereo not given) | -1.43 |  | 29.1 µM [falling, single point]
COCCn1c(SCC(=O)NCc2ccc(F)cc2)nc2ccccc21 | 37.5 |  | 
CC(C)Cc1nnc(NC(=O)CCN2C(=O)c3ccccc3C2=O)s1 | 10.9 |  | 
CCn1cc2nc(SCC(=O)Nc3ccccc3F)n(Cc3ccccc3)c(=O)c2n1 | -23.6 |  | 
COc1ccc(C2NC(=S)NC3=C2CCc2ccccc23)cc1OC (stereo not given) | -37.5 | 0.0058 µM [falling, full curve, poor fit] | 0.13 µM [falling, full curve, poor fit]
Cc1c(C(=O)Nc2ccc(Nc3ccccc3)cc2)cccc1[N+](=O)[O-] | -56.9 | 23.1 µM [falling, single point] | 1.64 µM [falling, partial curve]
CCN(CC)C(=O)COc1ccc(/C(C)=N/NC(=O)c2ccccc2-n2cccc2)cc1 | -14.9 |  | 
N#CCOC(=O)[C@H](Cc1ccccc1)N1C(=O)c2ccccc2C1=O | 3.55 |  | 
Cc1cc(C)cc(C(=O)NCC(=O)OCC(=O)c2c(N)n(C)c(=O)n(C)c2=O)c1 | -35.1 | 29.1 µM [falling, single point] | 11.6 µM [falling, partial curve]
COc1ccc2occ(C(=O)c3coc4ccc(O)c(CN(C)C)c34)c2c1 | -23.5 |  | 
COc1ccc(N2CCN(C(C)C(=O)N3CCc4ccccc43)CC2)cc1 (stereo not given) | 21 | 3.26 µM [rising, partial curve, poor fit] | 0.206 µM [rising, single point]
CC(NC(=O)COC(=O)/C=C/c1ccc(Cl)cc1)c1ccccc1 (stereo not given) |  |  | 0.58 µM [falling, single point]

Laid out differently: results already given.
SMILES,cell number change [%],AC50 [1],AC50 [2]
COCCn1c(SCC(=O)NCc2ccc(F)cc2)nc2ccccc21,37.5,,
CC(NC(=O)COC(=O)/C=C/c1ccc(Cl)cc1)c1ccccc1 (stereo not given),,,"0.58 µM [falling, single point]"

Following part:

SMILES | cell number change [%] | AC50 [1] | AC50 [2]
CCC(=O)c1ccc(OCc2ccc(C(=O)c3ccccc3)cc2)cc1 | -31.4 | 29.1 µM [falling, single point] | 
COc1cc(C(=O)Cc2nc3ccccc3n2C)cc(OC)c1OC | 22.6 |  | 29.1 µM [rising, single point]
Cc1ccc(NC(=O)NC(=O)N(C(C)C)S(=O)(=O)c2ccc(C)cc2)cc1 | -15.4 |  | 0.82 µM [rising, single point]
COCCCNC(=O)c1ccc2c(=O)n(Cc3ccc(Cl)cc3)c(=S)[nH]c2c1 |  |  | 0.651 µM [rising, partial curve, poor fit]
COc1ccc(C2=CC3=C(Br)C(=O)C(C)(OC(=O)C4CCCC4)C(=O)C3=CO2)cc1 (stereo not given) | -28.4 |  | 29.1 µM [falling, partial curve, poor fit]
Cc1ccc[n+](-c2nc([O-])sc2C=O)c1 | -47 |  | 
CCCCC(NC(C)=O)c1nc2ccccc2[nH]1 (stereo not given) | -37.2 | 32.6 µM [falling, partial curve, poor fit] | 29.1 µM [falling, partial curve]
COc1ccc(NS(=O)(=O)c2c(F)cc(F)c(Cl)c2F)cc1S(=O)(=O)N1CCCCC1 | 123 |  | 
c1csc(-c2csc3nc(CN4CCOCC4)nc(NCc4ccc5c(c4)OCO5)c23)c1 | -9.5 | 0.116 µM [rising, full curve, poor fit] | 0.103 µM [rising, full curve, poor fit]
COc1cc(C(=O)OCc2cc(=O)c(O)co2)ccc1OC(F)F | 11.7 |  | 
Cn1c(CNC(=O)c2ccccc2F)nnc1SCC(=O)Nc1nncs1 | -3.97 |  | 
CCOC(=O)c1c(NC(=O)CSc2nnc(Cc3csc(N)n3)n2C)sc(C)c1C | -4.92 |  | 
O=C(CN1CCOCC1)N/N=C/c1ccccc1 | 121 |  | 
CC(=O)N1N=C(c2ccco2)CC1c1ccc(C)cc1 (stereo not given) | -12.6 | 0.651 µM [falling, single point] | 0.366 µM [falling, partial curve, poor fit]
O=C(c1ccc2c(c1)OCO2)N(Cc1ccco1)C1(C(=O)NC2CCCCC2)CCCCC1 | 8.25 |  | 0.00461 µM [rising, full curve, poor fit]
Cc1c(Cl)ccc(S(=O)(=O)NCCN2CCOCC2)c1Cl | 4.66 |  | 3.26 µM [rising, partial curve]
